Measurements from the supplement of paper PMC6411743.
± gives the standard deviation of the averaged measurements. The list shows a part of the results, in another mix than the full data.

Chains of the proteins cited; added tags and fusions are not shown. Lines headed by an entry give the natural chain unless they say otherwise; changes in a name come on top.
UniProt Q9ULJ7: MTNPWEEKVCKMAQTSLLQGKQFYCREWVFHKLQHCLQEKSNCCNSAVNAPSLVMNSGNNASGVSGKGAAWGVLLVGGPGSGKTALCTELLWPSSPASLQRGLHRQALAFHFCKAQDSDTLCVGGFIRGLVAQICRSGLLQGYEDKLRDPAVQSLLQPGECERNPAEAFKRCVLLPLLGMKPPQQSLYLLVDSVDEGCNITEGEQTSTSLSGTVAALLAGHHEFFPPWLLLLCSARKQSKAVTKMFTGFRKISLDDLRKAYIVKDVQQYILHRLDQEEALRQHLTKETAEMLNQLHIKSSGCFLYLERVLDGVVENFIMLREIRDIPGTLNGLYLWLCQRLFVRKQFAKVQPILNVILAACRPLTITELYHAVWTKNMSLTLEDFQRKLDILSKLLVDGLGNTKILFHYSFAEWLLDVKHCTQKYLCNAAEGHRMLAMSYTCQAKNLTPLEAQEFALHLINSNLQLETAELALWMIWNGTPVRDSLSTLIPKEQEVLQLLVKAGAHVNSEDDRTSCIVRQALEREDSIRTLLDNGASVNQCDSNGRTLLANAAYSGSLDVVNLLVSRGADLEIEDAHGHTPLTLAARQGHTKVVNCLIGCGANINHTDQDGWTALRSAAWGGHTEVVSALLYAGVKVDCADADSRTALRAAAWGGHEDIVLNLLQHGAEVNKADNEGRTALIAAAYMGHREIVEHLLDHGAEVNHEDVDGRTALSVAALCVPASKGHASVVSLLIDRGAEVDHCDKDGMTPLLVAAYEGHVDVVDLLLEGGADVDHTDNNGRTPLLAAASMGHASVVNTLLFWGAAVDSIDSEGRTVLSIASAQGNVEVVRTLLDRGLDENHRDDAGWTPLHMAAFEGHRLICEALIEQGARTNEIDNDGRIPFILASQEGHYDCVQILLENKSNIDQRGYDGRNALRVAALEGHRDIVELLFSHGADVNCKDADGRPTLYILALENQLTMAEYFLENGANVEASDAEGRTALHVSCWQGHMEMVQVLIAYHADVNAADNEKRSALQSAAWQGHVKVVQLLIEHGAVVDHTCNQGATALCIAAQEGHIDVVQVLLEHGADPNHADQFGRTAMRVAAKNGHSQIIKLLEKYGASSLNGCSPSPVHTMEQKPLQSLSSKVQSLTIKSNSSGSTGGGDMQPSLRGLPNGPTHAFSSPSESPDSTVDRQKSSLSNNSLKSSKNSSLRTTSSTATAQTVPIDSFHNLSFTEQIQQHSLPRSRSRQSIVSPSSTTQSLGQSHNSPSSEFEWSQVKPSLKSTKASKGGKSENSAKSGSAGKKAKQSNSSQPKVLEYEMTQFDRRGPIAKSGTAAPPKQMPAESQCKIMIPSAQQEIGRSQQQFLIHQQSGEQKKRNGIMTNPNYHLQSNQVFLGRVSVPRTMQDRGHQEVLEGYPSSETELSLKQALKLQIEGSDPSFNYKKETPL
UniProt Q9UEU0: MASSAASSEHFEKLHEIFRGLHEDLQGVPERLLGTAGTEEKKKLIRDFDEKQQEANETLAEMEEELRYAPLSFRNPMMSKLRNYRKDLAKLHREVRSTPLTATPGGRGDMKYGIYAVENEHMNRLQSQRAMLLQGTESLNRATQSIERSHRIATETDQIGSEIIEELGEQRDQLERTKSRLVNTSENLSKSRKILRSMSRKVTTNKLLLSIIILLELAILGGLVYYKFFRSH
UniProt Q9Y222: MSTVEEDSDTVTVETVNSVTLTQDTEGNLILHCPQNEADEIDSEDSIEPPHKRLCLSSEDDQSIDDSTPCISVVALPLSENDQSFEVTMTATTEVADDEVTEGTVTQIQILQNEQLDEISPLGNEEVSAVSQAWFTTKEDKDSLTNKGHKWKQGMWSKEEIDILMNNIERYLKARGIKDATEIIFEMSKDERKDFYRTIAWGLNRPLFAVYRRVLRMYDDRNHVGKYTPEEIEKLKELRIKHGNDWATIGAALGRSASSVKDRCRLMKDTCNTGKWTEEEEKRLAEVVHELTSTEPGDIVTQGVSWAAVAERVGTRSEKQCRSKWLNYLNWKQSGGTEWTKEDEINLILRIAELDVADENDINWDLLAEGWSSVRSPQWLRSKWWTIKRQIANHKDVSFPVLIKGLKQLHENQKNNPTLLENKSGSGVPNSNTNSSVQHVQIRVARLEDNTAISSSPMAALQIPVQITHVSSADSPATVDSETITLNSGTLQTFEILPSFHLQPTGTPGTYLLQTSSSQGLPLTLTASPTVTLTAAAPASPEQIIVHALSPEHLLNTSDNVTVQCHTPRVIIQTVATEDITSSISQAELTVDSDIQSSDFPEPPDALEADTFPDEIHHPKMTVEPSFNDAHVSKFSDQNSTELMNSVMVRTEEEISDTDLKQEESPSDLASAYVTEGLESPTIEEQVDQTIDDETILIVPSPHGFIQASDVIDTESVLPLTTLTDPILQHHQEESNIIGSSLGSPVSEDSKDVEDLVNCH
UniProt Q9UPN7: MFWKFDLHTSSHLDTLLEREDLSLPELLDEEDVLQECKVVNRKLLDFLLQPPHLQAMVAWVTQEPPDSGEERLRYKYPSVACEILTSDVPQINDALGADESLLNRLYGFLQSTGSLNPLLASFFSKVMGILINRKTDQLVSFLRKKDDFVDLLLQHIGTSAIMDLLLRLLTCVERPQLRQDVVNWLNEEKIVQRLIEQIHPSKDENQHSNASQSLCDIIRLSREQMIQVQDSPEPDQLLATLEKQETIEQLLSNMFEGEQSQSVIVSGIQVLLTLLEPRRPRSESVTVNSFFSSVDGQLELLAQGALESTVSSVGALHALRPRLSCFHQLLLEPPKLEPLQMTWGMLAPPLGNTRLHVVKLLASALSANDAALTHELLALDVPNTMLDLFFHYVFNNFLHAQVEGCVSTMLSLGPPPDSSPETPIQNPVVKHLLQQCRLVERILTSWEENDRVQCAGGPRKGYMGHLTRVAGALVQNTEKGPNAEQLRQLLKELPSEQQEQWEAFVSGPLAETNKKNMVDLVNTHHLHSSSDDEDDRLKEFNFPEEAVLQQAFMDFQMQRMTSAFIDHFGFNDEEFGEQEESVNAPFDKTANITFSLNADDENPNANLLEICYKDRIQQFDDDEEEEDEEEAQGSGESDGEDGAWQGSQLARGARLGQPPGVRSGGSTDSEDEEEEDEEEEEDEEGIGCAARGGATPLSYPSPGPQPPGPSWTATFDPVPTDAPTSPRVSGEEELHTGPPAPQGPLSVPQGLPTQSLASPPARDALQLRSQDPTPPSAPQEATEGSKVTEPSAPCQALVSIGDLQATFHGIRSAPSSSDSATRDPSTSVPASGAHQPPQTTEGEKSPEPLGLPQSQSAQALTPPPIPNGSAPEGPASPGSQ
UniProt Q9Y2G5: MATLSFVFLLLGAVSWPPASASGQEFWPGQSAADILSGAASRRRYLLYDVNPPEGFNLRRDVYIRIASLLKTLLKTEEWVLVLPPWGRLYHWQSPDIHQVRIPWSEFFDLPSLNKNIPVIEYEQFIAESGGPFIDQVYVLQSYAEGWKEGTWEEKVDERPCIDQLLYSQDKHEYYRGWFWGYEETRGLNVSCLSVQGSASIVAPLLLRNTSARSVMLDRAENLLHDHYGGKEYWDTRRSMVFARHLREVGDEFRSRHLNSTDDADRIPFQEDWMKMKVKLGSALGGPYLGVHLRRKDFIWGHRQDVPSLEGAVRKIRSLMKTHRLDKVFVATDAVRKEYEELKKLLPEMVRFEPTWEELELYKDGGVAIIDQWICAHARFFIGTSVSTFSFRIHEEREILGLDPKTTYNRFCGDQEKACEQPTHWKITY
UniProt Q9Y266: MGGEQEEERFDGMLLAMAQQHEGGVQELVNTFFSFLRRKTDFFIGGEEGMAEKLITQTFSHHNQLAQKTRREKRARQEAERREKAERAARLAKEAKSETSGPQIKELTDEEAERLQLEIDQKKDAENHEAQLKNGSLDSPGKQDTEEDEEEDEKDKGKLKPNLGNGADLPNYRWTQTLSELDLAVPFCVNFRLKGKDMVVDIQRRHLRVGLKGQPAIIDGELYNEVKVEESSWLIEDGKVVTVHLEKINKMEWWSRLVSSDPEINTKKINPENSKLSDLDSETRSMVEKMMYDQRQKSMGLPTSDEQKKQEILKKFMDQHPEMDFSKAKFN
UniProt Q9UL40: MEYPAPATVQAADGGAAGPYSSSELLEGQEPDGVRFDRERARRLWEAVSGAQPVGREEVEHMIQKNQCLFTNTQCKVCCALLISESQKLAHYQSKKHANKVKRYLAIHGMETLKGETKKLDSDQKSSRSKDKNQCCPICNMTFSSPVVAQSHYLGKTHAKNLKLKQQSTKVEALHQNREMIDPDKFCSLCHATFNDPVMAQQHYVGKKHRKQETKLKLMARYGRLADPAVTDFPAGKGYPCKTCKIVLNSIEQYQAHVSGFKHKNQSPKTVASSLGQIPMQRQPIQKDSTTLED
UniProt Q9Y263: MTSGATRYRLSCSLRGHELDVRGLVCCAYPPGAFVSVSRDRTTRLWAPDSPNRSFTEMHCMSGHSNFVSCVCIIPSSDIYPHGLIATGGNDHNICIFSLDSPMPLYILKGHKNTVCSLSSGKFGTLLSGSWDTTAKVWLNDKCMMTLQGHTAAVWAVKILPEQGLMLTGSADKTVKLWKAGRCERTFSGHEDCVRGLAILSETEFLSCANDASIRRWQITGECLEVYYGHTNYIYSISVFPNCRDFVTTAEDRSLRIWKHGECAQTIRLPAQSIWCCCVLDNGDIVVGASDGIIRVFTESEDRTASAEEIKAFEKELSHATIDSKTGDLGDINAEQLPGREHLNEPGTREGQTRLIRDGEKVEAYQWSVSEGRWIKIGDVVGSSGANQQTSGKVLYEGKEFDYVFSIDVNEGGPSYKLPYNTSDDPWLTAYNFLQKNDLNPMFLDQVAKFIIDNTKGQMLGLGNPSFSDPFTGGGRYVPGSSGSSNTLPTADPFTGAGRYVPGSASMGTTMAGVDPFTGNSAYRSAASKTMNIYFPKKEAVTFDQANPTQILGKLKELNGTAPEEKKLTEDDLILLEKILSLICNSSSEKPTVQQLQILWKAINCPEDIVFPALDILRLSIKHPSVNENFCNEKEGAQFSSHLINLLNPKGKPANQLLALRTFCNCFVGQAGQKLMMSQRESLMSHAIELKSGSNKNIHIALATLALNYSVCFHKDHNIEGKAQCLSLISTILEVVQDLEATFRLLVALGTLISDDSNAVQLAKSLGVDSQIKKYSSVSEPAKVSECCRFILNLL
UniProt Q9UJY5: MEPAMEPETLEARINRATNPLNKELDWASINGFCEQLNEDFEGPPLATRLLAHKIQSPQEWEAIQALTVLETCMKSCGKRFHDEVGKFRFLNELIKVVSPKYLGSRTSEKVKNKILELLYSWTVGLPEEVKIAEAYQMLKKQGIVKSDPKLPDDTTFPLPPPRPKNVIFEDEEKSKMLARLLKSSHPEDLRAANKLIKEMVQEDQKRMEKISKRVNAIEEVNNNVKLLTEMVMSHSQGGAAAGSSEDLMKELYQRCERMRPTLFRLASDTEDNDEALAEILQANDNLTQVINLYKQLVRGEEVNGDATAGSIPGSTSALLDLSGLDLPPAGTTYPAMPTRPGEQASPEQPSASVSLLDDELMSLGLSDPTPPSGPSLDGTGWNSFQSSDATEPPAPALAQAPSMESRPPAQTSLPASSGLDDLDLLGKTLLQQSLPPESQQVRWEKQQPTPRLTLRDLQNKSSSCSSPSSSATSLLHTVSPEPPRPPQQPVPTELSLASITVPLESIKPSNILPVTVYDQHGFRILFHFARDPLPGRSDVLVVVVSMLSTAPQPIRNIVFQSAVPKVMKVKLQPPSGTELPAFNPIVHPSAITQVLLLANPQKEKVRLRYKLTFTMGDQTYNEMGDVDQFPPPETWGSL
UniProt Q9Y223: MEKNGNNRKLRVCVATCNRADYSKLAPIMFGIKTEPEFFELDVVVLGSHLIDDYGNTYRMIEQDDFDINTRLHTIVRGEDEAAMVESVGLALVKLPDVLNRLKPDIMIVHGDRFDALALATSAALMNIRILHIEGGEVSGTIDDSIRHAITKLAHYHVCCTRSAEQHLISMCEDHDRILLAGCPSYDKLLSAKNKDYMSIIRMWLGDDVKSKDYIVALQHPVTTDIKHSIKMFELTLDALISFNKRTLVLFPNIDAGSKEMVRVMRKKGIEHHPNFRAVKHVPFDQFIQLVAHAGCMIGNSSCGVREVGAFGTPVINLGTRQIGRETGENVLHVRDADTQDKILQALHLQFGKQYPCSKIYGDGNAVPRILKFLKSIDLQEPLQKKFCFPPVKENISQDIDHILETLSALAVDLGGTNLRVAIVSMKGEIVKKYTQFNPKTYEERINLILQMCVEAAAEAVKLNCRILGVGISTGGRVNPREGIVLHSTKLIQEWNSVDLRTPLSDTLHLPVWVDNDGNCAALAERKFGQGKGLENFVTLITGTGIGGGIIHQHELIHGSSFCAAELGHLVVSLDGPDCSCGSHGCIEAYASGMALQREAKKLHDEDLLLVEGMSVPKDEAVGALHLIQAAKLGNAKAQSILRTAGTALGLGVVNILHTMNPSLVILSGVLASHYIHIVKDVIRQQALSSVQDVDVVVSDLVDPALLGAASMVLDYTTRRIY

Compound: Nc1ncnc2c1ncn2[C@@H]1O[C@H](COP(=O)(O)OP(=O)(O)NP(=O)(O)O)[C@@H](O)[C@H]1O [adenylyl imidodiphosphate]
Test: NP40-soluble protein abundance relative to vehicle (solubility fold change) (ratio); higher = more soluble protein in presence of AMP-PNP
How it was run: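 Jurkat crude lysate (Dounce-homogenised) was treated with eight concentrations from 0.1 to 10 mM for 10 min at room temperature, then 3 min at 37 °C. It was solubilised with 0.8% NP40 and benzonase (60 min, 4 °C) and ultracentrifuged, and the supernatant was TMT-labelled for LC-MS/MS. Intensities were vsn-normalised, and the value is the fold change against the NP40-processed vehicle per replicate, from three independent experiments.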

Target	NP40-soluble protein abundance (concentration: 1mM)	NP40-soluble protein abundance (concentration: 2mM)	NP40-soluble protein abundance (concentration: 4mM)	NP40-soluble protein abundance (concentration: 6mM)	NP40-soluble protein abundance (concentration: 8mM)	NP40-soluble protein abundance (concentration: 10mM)
MED13 (UniProt Q9UHV7)	0.983 ± 0.019	0.99 ± 0.029	1.02 ± 0.021	1.08 ± 0.1	1.07 ± 0.13	1.03 ± 0.05
UniProt Q9Y2Q5 and related entries	0.979 ± 0.018	0.9754 ± 0.0018	0.997 ± 0.015	1.05 ± 0.057	1.07 ± 0.039	1.019 ± 0.0059
UniProt Q9ULJ7 and related entries	0.925 ± 0.083	0.866 ± 0.015	0.919 ± 0.049	0.923 ± 0.082	0.943 ± 0.077	0.859 ± 0.069
UniProt Q9Y2I8 and related entries	1.01 ± 0.017	0.981 ± 0.02	1.017 ± 0.0087	0.996 ± 0.036	1.01 ± 0.015	0.99 ± 0.021
VTI1B (UniProt Q9UEU0)	1.01 ± 0.019	1.02 ± 0.049	0.991 ± 0.016	0.991 ± 0.043	0.967 ± 0.058	0.957 ± 0.069
TTF2 (UniProt Q9UNY4)	1.07 ± 0.03	1.06 ± 0.025	1.06 ± 0.039	1.019 ± 0.0071	1.01 ± 0.026	1.03 ± 0.027
GSTK1 (UniProt Q9Y2Q3)	0.993 ± 0.032	0.943 ± 0.018	1 ± 0.051	1.04 ± 0.081	1.09 ± 0.049	1.05 ± 0.062
UniProt Q9Y222 and related entries	0.989 ± 0.043	0.992 ± 0.04	0.974 ± 0.029	1.01 ± 0.064	1.02 ± 0.04	0.992 ± 0.027
UniProt Q9UPN6 and related entries	1.03 ± 0.016	1.09 ± 0.06	1.09 ± 0.038	1.08 ± 0.025	1.08 ± 0.046	1.08 ± 0.028
UniProt Q9UKB1 and related entries	0.995 ± 0.016	0.961 ± 0.04	0.983 ± 0.011	1.01 ± 0.036	1.008 ± 0.0086	0.986 ± 0.051
ASF1A (UniProt Q9Y294)	0.958 ± 0.077	0.863 ± 0.091	0.904 ± 0.068	0.921 ± 0.037	0.946 ± 0.032	0.844 ± 0.11
UniProt Q9UK58 and related entries	0.9854 ± 0.0082	0.996 ± 0.029	0.97 ± 0.013	1.05 ± 0.086	0.995 ± 0.089	1.1 ± 0.046
UniProt Q9Y2X0-2|Q9Y2X0-3|Q9Y2X0	0.928 ± 0.029	0.913 ± 0.071	0.924 ± 0.06	0.927 ± 0.044	0.953 ± 0.056	0.913 ± 0.089
UniProt Q9UPP1 and related entries	1.04 ± 0.04	1.07 ± 0.093	1.04 ± 0.086	1.09 ± 0.077	1.09 ± 0.11	1.09 ± 0.13
UniProt Q9UPN7	0.999 ± 0.044	1.01 ± 0.033	0.982 ± 0.025	0.9756 ± 0.0079	0.975 ± 0.035	0.956 ± 0.025
UniProt Q9Y2G2 and related entries	0.979 ± 0.033	0.999 ± 0.044	0.974 ± 0.041	0.974 ± 0.048	0.973 ± 0.044	0.992 ± 0.047
PPM1H (UniProt Q9ULR3)	1 ± 0.013	0.96 ± 0.041	0.967 ± 0.033	0.964 ± 0.016	0.954 ± 0.014	0.956 ± 0.02
PLXNA1 (UniProt Q9UIW2)	1.01 ± 0.022	1.03 ± 0.036	1.03 ± 0.026	1.01 ± 0.026	1 ± 0.025	1.03 ± 0.018
YARS2 (UniProt Q9Y2Z4)	0.972 ± 0.031	0.935 ± 0.037	0.968 ± 0.022	0.936 ± 0.036	0.965 ± 0.014	0.935 ± 0.016
PPIL1 (UniProt Q9Y3C6)	0.979 ± 0.012	0.987 ± 0.015	0.98 ± 0.0096	1.06 ± 0.075	1.05 ± 0.037	1.05 ± 0.051

Whole records as entered above. Order of values: NP40-soluble protein abundance (concentration: 1mM)	NP40-soluble protein abundance (concentration: 2mM)	NP40-soluble protein abundance (concentration: 4mM)	NP40-soluble protein abundance (concentration: 6mM)	NP40-soluble protein abundance (concentration: 8mM)	NP40-soluble protein abundance (concentration: 10mM)
YARS2 (UniProt Q9Y2Z4) reads 0.972 ± 0.031	0.935 ± 0.037	0.968 ± 0.022	0.936 ± 0.036	0.965 ± 0.014	0.935 ± 0.016
UniProt Q9UPP1 and related entries reads 1.04 ± 0.04	1.07 ± 0.093	1.04 ± 0.086	1.09 ± 0.077	1.09 ± 0.11	1.09 ± 0.13
UniProt Q9ULJ7 and related entries reads 0.925 ± 0.083	0.866 ± 0.015	0.919 ± 0.049	0.923 ± 0.082	0.943 ± 0.077	0.859 ± 0.069

Additional records follow.

Target	NP40-soluble protein abundance (concentration: 1mM)	NP40-soluble protein abundance (concentration: 2mM)	NP40-soluble protein abundance (concentration: 4mM)	NP40-soluble protein abundance (concentration: 6mM)	NP40-soluble protein abundance (concentration: 8mM)	NP40-soluble protein abundance (concentration: 10mM)
UniProt Q9Y2U5	0.982 ± 0.034	0.982 ± 0.026	0.986 ± 0.051	1.016 ± 0.0081	0.973 ± 0.046	0.987 ± 0.035
SUGT1 (UniProt Q9Y2Z0)	1.008 ± 0.0067	1.01 ± 0.0087	0.955 ± 0.014	1.01 ± 0.022	0.983 ± 0.032	0.963 ± 0.044
UniProt Q9Y2L9 and related entries	1.02 ± 0.023	0.982 ± 0.019	1 ± 0.014	0.995 ± 0.015	0.9961 ± 0.0029	0.9858 ± 0.0035
GIT1 (UniProt Q9Y2X7)	1.02 ± 0.045	1.029 ± 0.0055	1.03 ± 0.011	1.02 ± 0.033	0.9989 ± 0.0093	1.01 ± 0.043
MRPL11 (UniProt Q9Y3B7)	0.909 ± 0.046	1.02 ± 0.048	0.941 ± 0.045	0.986 ± 0.061	0.999 ± 0.082	0.985 ± 0.094
POFUT2 (UniProt Q9Y2G5)	0.97 ± 0.033	0.967 ± 0.011	0.952 ± 0.011	0.981 ± 0.015	1 ± 0.022	0.99 ± 0.01
LUC7L2 (UniProt Q9Y383)	1.03 ± 0.047	1.08 ± 0.07	0.983 ± 0.023	0.999 ± 0.054	1.01 ± 0.044	1.2 ± 0.11
CARHSP1 (UniProt Q9Y2V2)	1.03 ± 0.047	1.11 ± 0.11	1.07 ± 0.052	1.06 ± 0.029	1.05 ± 0.042	1.08 ± 0.04
GPATCH8 (UniProt Q9UKJ3)	1.07 ± 0.051	1.1 ± 0.03	1.07 ± 0.05	1.03 ± 0.061	1.04 ± 0.038	1.06 ± 0.057
UniProt Q9UK53-2|A0A0C4DFW2|Q9UK53 and related entries	1.04 ± 0.081	1.03 ± 0.039	1.04 ± 0.11	1.03 ± 0.084	1.06 ± 0.1	1.04 ± 0.063
UniProt Q9UHD8 and related entries	1 ± 0.013	1.01 ± 0.031	0.98 ± 0.021	0.985 ± 0.014	0.966 ± 0.025	0.988 ± 0.03
UniProt Q9Y2H0 and related entries	0.986 ± 0.045	1.02 ± 0.08	0.98 ± 0.037	0.975 ± 0.019	0.969 ± 0.027	0.965 ± 0.027
UniProt Q9Y2Y0 and related entries	0.982 ± 0.014	0.972 ± 0.026	0.989 ± 0.036	0.988 ± 0.049	0.975 ± 0.032	0.953 ± 0.015
UniProt Q9UDY2 and related entries	1.02 ± 0.017	1.03 ± 0.043	1.02 ± 0.036	1.03 ± 0.065	1.04 ± 0.059	1.02 ± 0.054
LRWD1 (UniProt Q9UFC0)	1.01 ± 0.013	1 ± 0.024	1.02 ± 0.022	0.979 ± 0.024	0.977 ± 0.018	0.958 ± 0.022
UniProt Q9ULT8 and related entries	0.994 ± 0.043	0.995 ± 0.027	1.001 ± 0.008	0.975 ± 0.03	0.992 ± 0.039	0.996 ± 0.011
NUDC (UniProt Q9Y266)	1.03 ± 0.022	1.04 ± 0.084	0.989 ± 0.059	1.03 ± 0.04	1 ± 0.055	1 ± 0.075
UniProt Q9UH99 and related entries	1.02 ± 0.024	1.015 ± 0.006	1.013 ± 0.0092	1 ± 0.022	1.03 ± 0.013	1.003 ± 0.0041
UniProt Q9Y224	0.908 ± 0.057	1.01 ± 0.085	0.854 ± 0.056	0.839 ± 0.026	0.799 ± 0.03	0.763 ± 0.082
UniProt Q9Y333	1.07 ± 0.068	1.31 ± 0.34	1.09 ± 0.067	1.18 ± 0.067	1.14 ± 0.028	1.26 ± 0.14

Target	NP40-soluble protein abundance (concentration: 1mM)	NP40-soluble protein abundance (concentration: 2mM)	NP40-soluble protein abundance (concentration: 4mM)	NP40-soluble protein abundance (concentration: 6mM)	NP40-soluble protein abundance (concentration: 8mM)	NP40-soluble protein abundance (concentration: 10mM)
UniProt Q9Y320 and related entries	0.936 ± 0.038	0.89 ± 0.056	0.918 ± 0.036	0.952 ± 0.048	0.962 ± 0.04	0.95 ± 0.039
UniProt Q9UL40 and related entries	1.04 ± 0.017	1.06 ± 0.037	1.05 ± 0.036	1.11 ± 0.038	1.11 ± 0.049	1.15 ± 0.092
UniProt Q9Y259 and related entries	1.01 ± 0.011	0.989 ± 0.021	0.997 ± 0.03	0.98 ± 0.024	0.9913 ± 0.0044	0.976 ± 0.017
UniProt Q9UHW5 and related entries	0.99 ± 0.018	0.973 ± 0.076	1 ± 0.034	0.974 ± 0.03	0.98 ± 0.02	0.967 ± 0.016
PLAA (UniProt Q9Y263)	0.967 ± 0.021	0.949 ± 0.045	0.97 ± 0.017	0.964 ± 0.019	0.9613 ± 0.0081	0.942 ± 0.017
UniProt Q9UGR2 and related entries	1.02 ± 0.02	1.03 ± 0.033	1.06 ± 0.043	1.02 ± 0.011	1.07 ± 0.065	1.06 ± 0.051
UniProt Q9UJY5 and related entries	1 ± 0.034	1.02 ± 0.035	1.01 ± 0.043	0.98 ± 0.014	0.97 ± 0.025	0.952 ± 0.045
UniProt Q9Y3D8 and related entries	1.01 ± 0.046	1.06 ± 0.019	1.02 ± 0.012	0.993 ± 0.017	1.01 ± 0.015	1.02 ± 0.02
UniProt Q9Y223 and related entries	0.965 ± 0.033	0.909 ± 0.08	0.955 ± 0.022	0.932 ± 0.034	0.951 ± 0.028	0.918 ± 0.039
UniProt Q9UNL4 and related entries	0.976 ± 0.06	1 ± 0.044	1.03 ± 0.025	1.11 ± 0.033	1.13 ± 0.083	1.16 ± 0.049
UniProt Q9Y316 and related entries	0.997 ± 0.036	0.89 ± 0.13	0.953 ± 0.069	0.9298 ± 0.0038	0.949 ± 0.034	0.875 ± 0.039
UniProt Q9UN86-2	1.09 ± 0.036	1.18 ± 0.072	1.19 ± 0.052	1.25 ± 0.082	1.23 ± 0.062	1.26 ± 0.073
POLR3K (UniProt Q9Y2Y1)	0.995 ± 0.013	0.984 ± 0.0094	0.997 ± 0.019	0.9873 ± 0.0017	0.994 ± 0.014	0.9952 ± 0.007
UniProt Q9UKV8	0.969 ± 0.018	0.97 ± 0.021	0.999 ± 0.02	1.008 ± 0.0047	0.992 ± 0.027	1 ± 0.015
ARMCX3 (UniProt Q9UH62)	0.9719 ± 0.0081	0.991 ± 0.02	0.9997 ± 0.0099	1.04 ± 0.067	1.05 ± 0.038	1.07 ± 0.033
RAB22A (UniProt Q9UL26)	0.983 ± 0.042	0.962 ± 0.046	1 ± 0.037	0.989 ± 0.041	1.005 ± 0.0017	0.992 ± 0.026
TUBE1 (UniProt Q9UJT0)	0.9764 ± 0.0095	0.965 ± 0.075	1.01 ± 0.041	0.983 ± 0.013	1 ± 0.03	0.987 ± 0.023
UniProt Q9UKA9 and related entries	0.989 ± 0.022	0.98 ± 0.047	1.02 ± 0.04	1.04 ± 0.011	1.01 ± 0.016	1.03 ± 0.019
UniProt Q9UIG0 and related entries	1.04 ± 0.048	1.08 ± 0.055	1.11 ± 0.046	1.23 ± 0.074	1.3 ± 0.11	1.45 ± 0.16
UniProt Q9UBS8 and related entries	1.01 ± 0.039	0.981 ± 0.095	0.984 ± 0.038	0.981 ± 0.036	0.975 ± 0.015	0.972 ± 0.079
